Results published in PubChem BioAssay AID2685 (National Center for Advancing Translational Sciences (NCATS), 2010).
This is one part of the list. Further columns of the screen follow, without active or inactive calls. Most of these compounds were active or inconclusive in the main read-out, so they are no random draw. The note in brackets gives the kind of curve behind each potency; many fits are weak.

Assay: qHTS Assay for Lipid Storage Modulators in Drosophila S3 Cells;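 on cell number change: cells counted by Cell Tracker Red CMTPX staining in the red channel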
Details: BODIPY lipid droplet fluorescence, 18-24 h; for cell number change: measured here: cell count max response, cells fed with added oleic acid
In short: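 Laser-scanning cytometry quantifies lipid droplet accumulation (500–530 nm total intensity; droplet/cell object ratio) in oleic acid-fed (400 uM added) Drosophila S3 cells treated with a concentration series. 20 uM Triacsin C defined 100% inhibition.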

[1] = measured here: cell number channel AC50, cells fed with added oleic acid
[2] = measured here: lipid fluorescence (Fed channel) AC50, cells fed with added oleic acid

| SMILES | cell number change | AC50 [1] | AC50 [2] |
| --- | --- | --- | --- |
| O=C(COC(=O)CCNS(=O)(=O)c1ccc2c(c1)OCCO2)NC1CCCc2ccccc21 (stereo not drawn) | -5.86% | – | – |
| COc1cc(C(=O)NC(=S)Nc2cccc3nc(C)ccc23)cc(OC)c1OC | -23.9% | 1.16 µM [falling, full curve, poor fit] | – |
| Cc1ccc(OP(=O)(Nc2c(C)n(C)n(-c3ccccc3)c2=O)Oc2ccc(C)cc2)cc1 | -65.7% | 25.9 µM [falling, partial curve, poor fit] | 0.82 µM [falling, full curve, poor fit] |
| O=C(CSc1ccc2c(c1)OCCO2)NCc1ccco1 | -91.6% | 18.4 µM [falling, single point] | – |
| O=C(CN1CCc2ccccc2C1)Nc1cccc(S(=O)(=O)N2CCCC2)c1 | – | – | 0.731 µM [falling, single point] |
| NC(=O)c1ccc(C23CC4CC(CC(C4)C2)C3)o1 | -36.2% | 5.8 µM [falling, full curve] | 1.64 µM [falling, full curve] |
| CS(=O)(=O)N(CC(=O)Nc1ccc2c(c1)OCCO2)c1ccc2c(c1)OCO2 | – | 0.58 µM [rising, single point] | 0.58 µM [rising, single point] |
| Cc1ccc(S(=O)(=O)Nc2c(C(=O)O)[nH]c3ccccc23)cc1C | 8.33% | – | – |
| Cc1cc(C(=O)CSc2nnc(-c3ccco3)o2)c(C)n1CC1COc2ccccc2O1 (stereo not drawn) | -16% | – | 0.00461 µM [rising, full curve, poor fit] |
| O=C(O)c1csc(-c2ccccc2)n1 | -7.1% | – | 3.26 µM [falling, single point] |
| Cn1c2ccccc2c2nnc(SCc3nnc(-c4ccccc4)o3)nc21 | 39.8% | 29.1 µM [rising, single point] | 2.31 µM [rising, partial curve, poor fit] |
| CC(=O)C1=C(C)NC(=O)NC1c1cccs1 (stereo not drawn) | -38.6% | 3.26 µM [falling, full curve] | 3.26 µM [falling, full curve] |
| O=C(COc1ccccc1)NC1C(=O)N2C(C(=O)O)=C(Cl)CSC12 (stereo not drawn) | 25.7% | – | 29.1 µM [rising, single point] |
| Cc1ccc2nc(NC(=O)C3CCN(c4ncnc5sc(C)c(C)c45)CC3)sc2c1 | 30.5% | 11.6 µM [rising, partial curve, poor fit] | 7.31 µM [rising, partial curve, poor fit] |
| O=C(COC(=O)c1n[nH]c2ccccc12)Nc1ccc(S(=O)(=O)N2CCCC2)cc1 | -31.6% | – | 4.61 µM [falling, partial curve] |
| CCOc1ccc(S(=O)(=O)NN)cc1 | 7.28% | 4.11 µM [falling, single point] | 14.6 µM [falling, partial curve] |
| C=CCCOc1ccccc1C(N)=O | 3.76% | – | 4.11 µM [falling, single point] |
| CCOc1ccccc1NC(=O)c1oc2ccccc2c1NC(=O)C1CCCO1 (stereo not drawn) | 0.797% | 0.731 µM [rising, full curve, poor fit] | 0.0116 µM [rising, full curve, poor fit] |
| CC(OC(=O)c1ccc2ccccc2c1)C(=O)N(C)Cc1ccccc1 (stereo not drawn) | 25.6% | – | 29.1 µM [rising, single point] |

| SMILES | cell number change | AC50 [1] | AC50 [2] |
| --- | --- | --- | --- |
| CCOc1ccc(S(=O)(=O)NCCCN2CCOCC2)c2ccccc12 | – | – | 0.116 µM [falling, full curve, poor fit] |
| Fc1ccc(OCc2nn3cnnc3s2)cc1 | -2.81% | – | – |
| O=C(CN1CCSCC1)N/N=C/c1cccc(Cl)c1 | 18.9% | – | 0.00461 µM [falling, full curve, poor fit] |
| Cc1nnc(SCC2=C(C(=O)O)N3C(=O)C(NC(=O)Cc4ccccc4)C3SC2)s1 (stereo not drawn) | 0.423% | – | – |
| CC(=O)Nc1ccc(S(=O)(=O)N2CCC(C(=O)NCCC(=O)Nc3nccs3)CC2)cc1 | 6.87% | – | 29.1 µM [rising, partial curve] |
| CCN(CC)S(=O)(=O)c1ccc2c(c1)nc(SCC(N)=O)n2-c1ccc(OC)cc1 | 25.1% | – | 29.1 µM [rising, single point] |
| COc1cccc(C(=O)NCCCn2ccnc2)c1 | -45.3% | – | – |
| CCN(CC)c1ccc(/C=C(/C#N)C(=O)NC(C)C)o1 | -4.94% | – | – |
| O=C(/C=C/c1ccc2c(c1)OCO2)c1ccc[nH]1 | -1.22% | 6.51 µM [rising, single point] | 16.4 µM [rising, partial curve] |
| CCONC(=NC)c1nonc1N | -47.3% | 4.11 µM [falling, full curve, poor fit] | 6.51 µM [falling, single point] |
| Cc1cccc([N+](=O)[O-])c1NC(=O)CN(Cc1ccccc1)Cc1ccccc1 | 4.72% | – | – |
| Cc1ccc(SCCC(=O)Nc2ccccc2C(=O)N2CCOCC2)cc1 | 6.46% | – | 0.651 µM [falling, partial curve, poor fit] |
| CCC(=O)Nc1c(C)nn(C(=O)CC)c1C | -42.4% | 3.66 µM [falling, full curve] | 14.6 µM [falling, partial curve] |
| NC(=O)Nc1cccc2ccccc12 | 7.61% | 0.461 µM [falling, single point] | 0.461 µM [falling, single point] |
| Cc1c(OC(C)C(=O)NCCCN2CCCC2=O)ccc2c3c(c(=O)oc12)CCCC3 (stereo not drawn) | -24.8% | – | 29.1 µM [falling, single point] |
| Cc1ccc(CNS(=O)(=O)NCc2ccccc2F)cc1 | 107% | 8.2 µM [rising, partial curve] | – |
| c1nc2nc3c(c(N4CCOCC4)n2n1)CCCC3 | 43.1% | 20.6 µM [rising, single point] | – |
| Cc1nn(C)c(C)c1NS(=O)(=O)c1ccc(OC(F)(F)F)cc1 | -97.5% | – | – |
| CCOc1ccc(NS(=O)(=O)c2ccc3[nH]c(=O)cc(C(=O)O)c3c2)cc1 | -30.2% | 29.1 µM [falling, single point] | 29.1 µM [falling, single point] |

Full records from above. Values in the order: cell number change	AC50 [1]	AC50 [2]
Cc1cc(C(=O)CSc2nnc(-c3ccco3)o2)c(C)n1CC1COc2ccccc2O1 (stereo not drawn) is listed as -16%	–	0.00461 µM [rising, full curve, poor fit]
c1nc2nc3c(c(N4CCOCC4)n2n1)CCCC3 is listed as 43.1%	20.6 µM [rising, single point]	–
